Experimental data reported in patent US6683047B1, “Method of inhibiting transcription utilizing nuclear receptors” (The Burnham Institute, priority 1990, dated 2004).
For at least one compound, name, drawing or mass did not settle the structure.

System: AP-1 activity (cJun homodimers or cJun/cFos heterodimers)
Experiment: -73 Col-CAT reporter in F9 cells co-transfected with cJun or cJun and cFos expression vectors
Assay type: cell-based

SMILES: CC1=C(/C=C/C(C)=C/C=C/C(C)=C/C(=O)O)C(C)(C)CCC1 [RA, retinoic acid]
- expression of -73 Col-CAT (cJun or cJun plus cFos expression vector): inhibited
- expression of -73 Col-CAT with co-transfected RARβ expression vector (cJun or cJun plus cFos, plus RARβ expression vector): further inhibition
